# Results taken from patent US11744798B2, “Injectable pharmaceutical formulation” (UPM-Kymmene Corporation, priority 2019, dated 2023).
# Some of these results come from one statement about several compounds together. At least one compound was matched to its structure with a doubt left.
# Experiment: Extensive in vitro dissolution study of API depots (0.9% NaCl, +37° C., HPLC-UV)
# Type: physicochemical
# Conditions: from NFC formulations, selected doses
row,SMILES,duration of sustained release [days]
1,CC(C(=O)O)c1ccc2c(c1)[nH]c1ccc(Cl)cc12 (centres unmarked) [Carprofen],3 to 14
2,Cc1cnc(NC(=O)C2=C(O)c3ccccc3S(=O)(=O)N2C)s1 [Meloxicam],3 to 14
